{"sequences": {"note": "Amino acid sequences for entries named in this document (tags omitted). A change or cut given only in a name is not applied to a line headed by its entry.", "UniProt P05555": "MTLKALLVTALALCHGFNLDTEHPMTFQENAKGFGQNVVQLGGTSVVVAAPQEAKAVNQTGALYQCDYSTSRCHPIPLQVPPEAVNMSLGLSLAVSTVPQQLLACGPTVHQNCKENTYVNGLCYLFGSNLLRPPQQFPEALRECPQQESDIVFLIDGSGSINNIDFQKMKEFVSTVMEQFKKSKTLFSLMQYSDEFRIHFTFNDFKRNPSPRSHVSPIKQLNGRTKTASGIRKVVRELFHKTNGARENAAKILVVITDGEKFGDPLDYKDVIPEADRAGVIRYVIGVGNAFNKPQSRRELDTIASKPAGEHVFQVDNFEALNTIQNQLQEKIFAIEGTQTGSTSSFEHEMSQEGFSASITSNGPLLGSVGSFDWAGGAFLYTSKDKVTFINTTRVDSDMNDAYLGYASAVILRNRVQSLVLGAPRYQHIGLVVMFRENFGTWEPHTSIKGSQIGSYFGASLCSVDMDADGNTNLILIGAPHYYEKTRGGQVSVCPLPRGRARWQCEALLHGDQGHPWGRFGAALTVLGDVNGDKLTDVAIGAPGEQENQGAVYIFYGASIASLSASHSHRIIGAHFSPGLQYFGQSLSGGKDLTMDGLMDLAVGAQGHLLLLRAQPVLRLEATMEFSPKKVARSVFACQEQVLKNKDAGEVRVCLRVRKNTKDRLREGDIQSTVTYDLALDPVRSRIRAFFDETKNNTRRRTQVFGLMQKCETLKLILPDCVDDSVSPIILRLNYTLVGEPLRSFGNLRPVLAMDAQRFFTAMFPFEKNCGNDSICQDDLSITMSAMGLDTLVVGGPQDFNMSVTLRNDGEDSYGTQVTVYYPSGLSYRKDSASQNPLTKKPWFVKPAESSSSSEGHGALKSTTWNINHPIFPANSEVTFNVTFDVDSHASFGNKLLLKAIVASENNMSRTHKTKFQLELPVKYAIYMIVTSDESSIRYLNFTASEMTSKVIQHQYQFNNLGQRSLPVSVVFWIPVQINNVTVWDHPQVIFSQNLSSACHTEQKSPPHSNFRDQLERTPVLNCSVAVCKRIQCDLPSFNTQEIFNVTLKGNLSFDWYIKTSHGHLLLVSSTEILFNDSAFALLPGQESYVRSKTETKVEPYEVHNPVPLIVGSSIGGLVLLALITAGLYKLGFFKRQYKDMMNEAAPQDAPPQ"}, "source": "paper PMC11082240", "target": "Als3 on the surface of C. albicans hyphae (WT strain SN250 and the als3^Δ/Δ::ALS3 complemented strain) (C. albicans) (UniProt Q59L12)", "assay": "cross-linking + pull-down; mouse iBMDM cells incubated with hyphae 45 min 37 °C in RPMI, DSP 1.5 mM 30 min, lysis in TBS 1% β-OG 1% BSA, hyphae washed 6 times, hypha-bound CD18 blotted", "note": "These are yes or no findings as the source states them, for the method shown. Binding seen in cells or lysates may run through a third protein. Some binding calls cover weakened binding; strength is not graded here."}
{"substance": "macrophage CR3 (CD11b/CD18), endogenous in mouse immortalized bone marrow-derived macrophages (iBMDM) (from UniProt P05555 17-1153; P11835 24-771) (complex)", "values": [{"measurement": "binding", "result": "binds"}]}
